Reference: US12221436B2, “Anthranilamides, their use as insecticide and processes for preparing the same” (PI INDUSTRIES LTD., priority 2018, dated 2025)
Some results were stated once for a whole list of compounds, not compound by compound. At least one structure is not confirmed: it was looked up by name or label, or the drawing left a doubt.

Test system: Plutella xylostella
Format: in vivo
Conditions: @ 300 PPM; second instar larvae; 72 h after release; dead and moribund combined
Procedure: Test solutions were prepared according to the procedure described herein below (500 PPM):
• 1. Eppendorf Vortex mixer (ThermoMixer C) and 1.5 mL Eppendorf tubes • 2. Beaker—100 mL • 3. Micro-pipette Reagents: • 1. Surfactant Solution • 2. De-mineralized (DM) Water Procedure: • 1. Weigh 10 mg of the compound of the present invention to be tested in an Eppendorf Tube. • 2. Add 200 mg of the Surfactant Solution into the tube. • 3. Fix the tube in Eppendorf Vortex mixer and start vortexing at 2000 rpm. • 4. Mix on Vortex mixer for 30 min. After 30 min, observe the sample over a microscope at 400× resolution. • 5. […] Further dilutions can be prepared by taking appropriate quantity of the aliquot of Step 8, immediately after stirring, and diluting as per requirement. […]
Leaf dip method was used for screening, wherein the required quantity of the compounds were weighed and dissolved in the test solution into the tube and vortex at 2000 rpm with Zirconia beads for 90 min for proper mixing, then mixed with 0.01% Triton-X solution to get the desired test concentration. and Cabbage leaves were dipped in the solution for 10 seconds, shade dried for 20 min and then transferred to bioassay trays. […] Observations on dead, moribund and live larvae were recorded at 72 h after the release. Percent mortality was calculated by combining dead and moribund larvae. […]

CCS(CC)=NC(=O)c1cc(Cl)cc(C)c1NC(=O)c1cc(OC2CSC2)nn1-c1ncccc1Cl [Compound 102, N-(4-chloro-2-((diethyl-14-sulfaneylidene)carbamoyl)-6-methylphenyl)-1-(3-chloropyridin-2-yl)-3-(thietan-3-yloxy)-1H-pyrazole-5-carboxamide]
percent mortality: more than 70%
